Data from the supplement of paper PMC3334620.
Over roughly 33,000 sequences, “E-score (-0.5 to 0.5)” has its median near -0.0059; the highest 2% begin near 0.26. Some of the results follow.

biological target: T1, Cin5 (UniProt P40917); assay: PBM E-score (8-mer binding enrichment) (E-score (-0.5 to 0.5)); higher = stronger / more preferred TF binding; settings: protein concentration: 100 nM; construct: GST-full length
T1 sequence: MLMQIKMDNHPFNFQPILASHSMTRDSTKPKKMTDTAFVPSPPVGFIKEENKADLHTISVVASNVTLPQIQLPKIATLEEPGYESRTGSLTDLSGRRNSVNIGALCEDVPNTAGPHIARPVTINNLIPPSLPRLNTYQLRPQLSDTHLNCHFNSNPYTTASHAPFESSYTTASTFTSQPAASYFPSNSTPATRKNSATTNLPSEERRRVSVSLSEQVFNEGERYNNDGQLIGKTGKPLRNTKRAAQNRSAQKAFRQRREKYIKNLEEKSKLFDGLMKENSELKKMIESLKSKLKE
Description: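 Universal 'all 10-mer' protein binding microarrays (Agilent AMADID 015681) probed with GST-tagged S. cerevisiae TFs (full-length or DBD) made by in vitro transcription/translation (PURExpress), about 100-200 nM. Bound TF was detected with fluorescent anti-GST. Each ungapped 8-mer (which stands for itself and its reverse complement) is scored by the PBM enrichment score (E-score), a modified Wilcoxon-Mann-Whitney statistic from -0.5 to +0.5, computed with the Universal PBM Analysis Suite. Scale: above 0.35 generally sequence-specific binding.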

| Sequence | PBM E-score |
| --- | --- |
| GCGTGTAA | -0.057 |
| ACGGTCCG | -0.279 |
| GGGCACAA | -0.0694 |
| GTCGAAGA | 0.0765 |
| GGGAGAGA | -0.253 |
| CTCTAGAA | -0.143 |
| AGCTTTAG | -0.134 |
| CCTTGGGC | -0.258 |
| TCATATAA | 0.197 |
| GTACATCA | 0.103 |
| TAAATTCA | 0.0481 |
| CCACCAGA | 0.061 |
| AGCTGCCT | -0.214 |
| ATCGAATA | 0.0729 |
| CAATCCAC | 0.0216 |
| TAAGCTGA | 0.267 |
| ACCGTGTA | 0.0936 |
| AACCGGTA | -0.00751 |
| TAACCTAA | 0.0636 |
| CTCACCAC | -0.115 |
| CTGAAGAA | -0.0731 |
| GAATTGGC | 0.0496 |
| ATAAACAT | 0.185 |
| GTATGCAA | 0.143 |
| CTGTAAGA | -0.00022 |

Single entries from the entries so far:
GGGAGAGA | PBM E-score: -0.253
CTGTAAGA | PBM E-score: -0.00022
ACGGTCCG | PBM E-score: -0.279
AGCTTTAG | PBM E-score: -0.134
ACCGTGTA | PBM E-score: 0.0936
TAACCTAA | PBM E-score: 0.0636
GTCGAAGA | PBM E-score: 0.0765

Additional records follow.

| Sequence | PBM E-score |
| --- | --- |
| CCGTCTAA | 0.0286 |
| AAGGCGAG | -0.115 |
| GTTGAAAA | 0.004 |
| ATGGCCAC | -0.19 |
| TAAGAGGA | -0.0151 |
| ATGAAAAT | 0.165 |
| AAAATTAC | 0.174 |
| CAGTTCAG | 0.058 |
| CGTCCCAA | -0.0522 |
| CGCCGCGA | 0.125 |
| GTTAACTA | 0.205 |
| CTCACCCC | -0.128 |
| CATCTCCC | -0.0154 |
| GCAAAAAC | 0.0399 |
| AGGCCATG | 0.0399 |
| ACCTATAG | 0.0455 |
| CTCAAGAC | -0.175 |
| TCAGTAAA | 0.11 |
| CCTCATAC | 0.101 |
| AGTGACTA | -0.0808 |
| ACAGATGC | -0.0868 |
| AACCGACT | -0.0664 |
| CGACTGCA | -0.0752 |
| AACAAACC | 0.144 |
| GCGGTCCC | -0.247 |

| Sequence | PBM E-score |
| --- | --- |
| TCTCTACA | -0.00517 |
| CAGAGAAC | -0.117 |
| TTAGGGAA | -0.0213 |
| AGGCACGA | -0.0654 |
| ATGAAAGC | 0.134 |
| CCTCGATA | 0.127 |
| AGTCTGGA | 0.041 |
| AACAAACG | 0.0102 |
| GCTTCCTA | -0.0299 |
| ACGTGCCC | -0.0588 |
| GCCGCCCA | -0.155 |
| GACTGCCA | 0.00758 |
| AATGAAGG | 0.0467 |
| AGTCAAAG | -0.0858 |
| ACGCACAA | 0.109 |
| CCTAGAGC | -0.152 |
| CACGCCTA | -0.19 |
| CGGATTAC | 0.122 |
| GTTTCACA | 0.0881 |
| CGTTGGAG | -0.105 |
| GGCTTTCA | 0.0353 |
| CAGATTTC | 0.0552 |
| ACAGTTTA | -0.0529 |
| GAGCACCC | -0.229 |
| CAAGTCAC | -0.00125 |

| Sequence | PBM E-score |
| --- | --- |
| GGGGATAC | -0.0148 |
| CGCAACGC | -0.0239 |
| GCGCACAC | -0.00911 |
| GTCAGGGA | -0.114 |
| GCTCGGTA | -0.138 |
| AGCATAAC | 0.0567 |
| TACGGATA | 0.0313 |
| ATTGACTC | 0.11 |
| ATGTTCGA | -0.0359 |
| ACGTCCTC | -0.114 |
| AGATACGC | 0.0106 |
| CAAAATAA | 0.203 |
| ATCTGAGA | -0.00608 |
| CACATATC | 0.143 |
| GATGACCA | -0.00607 |
| ATTCTACC | 0.0412 |
| CGACTGGC | -0.111 |
| ATACAAGC | 0.254 |
| ACTTTATA | 0.214 |
| CAGGGTGG | -0.151 |
| CTGTTGAC | -0.113 |
| ACATGTGA | -0.0516 |
| AATACACC | 0.182 |
| CGACCTAG | 0.071 |
| GATCATAC | 0.0203 |

| Sequence | PBM E-score |
| --- | --- |
| AGGAATGG | -0.0178 |
| AGACTTCC | -0.171 |
| CTTTGTCA | 0.114 |
| ACCGCAAG | 0.00418 |
| GCGCTTCC | -0.0888 |
| GCTTGAAA | 0.0153 |
| ATAACGTC | 0.0919 |
| TCGCTTCA | -0.131 |
| GGCAGACA | -0.165 |
| GCCCCAAA | -0.106 |
| ACGATGTG | 0.0576 |
| TCCTTCAA | -0.0474 |
| TCCATCCA | -0.0186 |
| AGCTACGA | -0.0408 |
| CATTCTCC | -0.0533 |
| CTCAGCCC | -0.258 |
| AAGGCGGG | -0.193 |
| GTCGCTCA | -0.0802 |
| CCTAGTCC | -0.293 |
| TCTGTACA | 0.101 |
| AGATCTGA | 0.0167 |
| CGATTTTC | 0.146 |
| ACGCGTCG | 0.121 |
| CGCGTGTA | 0.0559 |
| AGTATTGA | 0.189 |

| Sequence | PBM E-score |
| --- | --- |
| CCTCTGCG | -0.21 |
| AAACGACA | 0.168 |
| ACGTAAAG | 0.191 |
| GATCAGGA | -0.0332 |
| GATAGATA | 0.0426 |
| AAGATGGT | 0.0214 |
| ACAGGACT | -0.139 |
| CGAATTGA | -0.0469 |
| GATTGCAC | 0.119 |
| CTCCACCC | -0.275 |
| ACATATAG | 0.153 |
| AAGGAACT | 0.0326 |
| TGTGAAAA | 0.0454 |
| AATGACGC | 0.0838 |
| GACGCGCA | 0.00622 |
| CGACGCGC | -0.0356 |
| CGAACCGC | 0.0258 |
| TATCATAA | 0.272 |
| AGTGAGCA | -0.0506 |
| ATCGAGAG | 0.0415 |
| AGGGGTAA | -0.0717 |
| AACCGGGG | -0.165 |
| AACACCGG | 0.0101 |
| CGAGGCGC | -0.063 |
| CTCTGGGC | -0.136 |

Reprinted at random: 2 records from the list, in no set order.

| Sequence | PBM E-score |
| --- | --- |
| GACGCGCA | 0.00622 |
| GATAGATA | 0.0426 |

(cont.)

| Sequence | PBM E-score |
| --- | --- |
| GCCTTAAC | -0.0683 |
| CCTGTAGC | -0.281 |
| CTTGTGCA | 0.155 |
| AGAGCGTA | 0.0172 |
| TACGATGA | 0.12 |
| ACCCTACC | -0.0598 |
| CCACTGAC | -0.213 |
| CCGTTTCG | 0.0547 |
| ACAGTTCG | 0.134 |
| AATTCGAC | -0.326 |
| CGCACCGA | -0.0487 |
| GATATCAC | 0.0843 |
| CGTTGCAC | -0.0719 |
| TGGACAAA | 0.0596 |
| CACTGTCG | -0.125 |
| GGCCAGCC | -0.277 |
| CGAAGGAC | -0.185 |
| ACAAGCTC | -0.135 |
| TTTGAAAA | 0.0873 |
| ATTTATTA | 0.306 |
| ATCTCCAT | 0.0751 |
| AATTTGAG | -0.0611 |
| GGACTGAC | -0.188 |
| AATCAGAA | 0.145 |
| ACCCCCCG | -0.443 |

| Sequence | PBM E-score |
| --- | --- |
| ACTATTTC | 0.228 |
| GACTAGTA | 0.0219 |
| TCGGACGA | -0.0197 |
| ACTAAAAT | 0.223 |
| AGCAACTG | 0.0467 |
| CTATTCCA | 0.215 |
| ATGCGGCG | 0.0727 |
| AATCCAGA | 0.218 |
| GTCCTGAA | -0.197 |
| CTGGACAC | -0.252 |
| AACATTCT | 0.0562 |
| AACTCGTG | 0.0764 |
| AAACTGTT | 0.189 |
| CAGAAGAA | -0.0652 |
| AGCCCGGG | -0.183 |
| AATCGCCC | -0.116 |
| AGGATCAT | -0.136 |
| GCGGGGTA | 0.0248 |
| TACAATGA | -0.0302 |
| GGTGAGGA | -0.0487 |
| CTAAATAA | 0.0261 |
| GCAATCAA | 0.195 |
| CCGCGACA | 0.0648 |
| ATTACCCC | -0.0139 |
| TAGCAAGA | -0.0558 |

| Sequence | PBM E-score |
| --- | --- |
| ATTTGGAC | 0.0481 |
| GCTACTAC | 0.222 |
| CGGTCATA | 0.0647 |
| AAGCACGT | 0.109 |
| GGTAGGAC | -0.121 |
| AGGTCACG | -0.107 |
| ATAGCGGC | 0.00766 |
| ATATTAGC | 0.128 |
| AATGACAC | 0.115 |
| CCTAGCAC | -0.215 |
| CCGGACAG | -0.0739 |
| CATAGAGA | 0.0311 |
| CAATTACA | 0.242 |
| ACCACCGC | -0.0868 |
| AATGGCAA | 0.0889 |
| AGACGCTA | -0.199 |
| CCCGGAAG | -0.0981 |
| CCCGCCTC | -0.142 |
| ACTATAGC | -0.138 |
